Measured values published in patent US20080096227A1.
Results are given in words; binding and its absence hold for the method and conditions named. Binding seen in cells or lysates may run through a third protein. Some binding calls cover weakened binding; strength is not graded here. Blank lines part the entries; values can stand above or below the substance they belong to.

The chains behind the UniProt entries cited, without tags or fusion partners. Where a name states a change or a piece, a line headed by the entry shows the natural chain unless it says otherwise.
UniProt Q96D31: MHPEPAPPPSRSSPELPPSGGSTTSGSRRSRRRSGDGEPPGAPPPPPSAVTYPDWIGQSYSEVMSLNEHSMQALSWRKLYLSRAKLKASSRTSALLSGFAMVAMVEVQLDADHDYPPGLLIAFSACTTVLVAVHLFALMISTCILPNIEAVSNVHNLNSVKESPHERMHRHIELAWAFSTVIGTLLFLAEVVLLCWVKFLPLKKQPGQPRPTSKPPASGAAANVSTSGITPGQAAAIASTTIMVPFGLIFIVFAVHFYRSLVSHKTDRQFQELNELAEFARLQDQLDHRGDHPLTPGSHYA

Columns and labels:
CRACM1-Myc-His (human) [1] = target: CRACM1-Myc-His (human) (UniProt Q96D31); assay: reciprocal co-immunoprecipitation from HEK293 cells, anti-tag immunoblot
CRACM1-Myc-His (human) [2] = target: CRACM1-Myc-His (human) (UniProt Q96D31); assay: co-immunoprecipitation from co-transfected HEK293 cells, immunoblot
CRACM1-Myc-His (human) [3] = target: CRACM1-Myc-His (human) (UniProt Q96D31); assay: co-immunoprecipitation, immunoblot
[4] = target: Flag-E106Q-CRACM1 (human) (UniProt Q96D31); assay: co-immunoprecipitation, immunoblot
Flag-CRACM1 (human) [5] = target: Flag-CRACM1 (human) (UniProt Q96D31); assay: reverse co-immunoprecipitation from co-transfected HEK293 cells, immunoblot
Flag-CRACM1 (human) [6] = target: Flag-CRACM1 (human) (UniProt Q96D31); assay: co-immunoprecipitation, immunoblot

binding (CRACM1-Myc-His (human) [1]): binds | binding (CRACM1-Myc-His (human) [2]): binds
Substance: Flag-CRACM1 (from UniProt Q96D31 1-301)

binding (CRACM1-Myc-His (human) [3]): binds
Substance: Flag-E106Q-CRACM1 (from UniProt Q96D31 1-301)

binding [4]: binds | binding (Flag-CRACM1 (human) [5]): binds
Substance: CRACM1-Myc-His (from UniProt Q96D31 1-301)

binding (Flag-CRACM1 (human) [6]): binds
Substance: D110/112A-CRACM1-Myc-His (from UniProt Q96D31 1-301)
